Results from patent US20060247361A1, “Polar functionalized polymer modified porous substrate for solid phase extraction” (priority 2005, published 2006).
Where a name gives a salt, the structure may show the parent alone.

Assays:
[1] = Capacity of polymer modified glass fiber monoliths for analytes; conditions: PSDVB; weight of analyte adsorbed at 30% breakthrough; N=3
[2] = as above; conditions: PSDVB-NHCOCH3; weight of analyte adsorbed at 30% breakthrough; N=3
[3] = as above; conditions: NVA-DVB “high”; weight of analyte adsorbed at 30% breakthrough; N=3

| Compound | Amount of analyte adsorbed (sorbent capacity) [1] | Amount of analyte adsorbed (sorbent capacity) [2] | Amount of analyte adsorbed (sorbent capacity) [3] |
| --- | --- | --- | --- |
| CCCCNCC(O)c1ccc(O)cc1.CCCCNCC(O)c1ccc(O)cc1.O=S(=O)(O)O (stereo not drawn) [Bamathan hemisulfate] | 0 µg | 2.0 µg | 14 µg |
| CCCC(C)(COC(N)=O)COC(=O)NC(C)C (stereo not drawn) [Carisoprodol] | 0 µg | 1.2 µg | 57 µg |
| CNC(=C[N+](=O)[O-])NCCSCc1ccc(CN(C)C)o1 [Ranitidine HCl] | 0 µg | 1.1 µg | 44 µg |
| CC(C)(C)NCC(O)c1ccc(O)c(CO)c1 (stereo not drawn) [Salbutamol] | 0 µg | 0 µg | 4 µg |
| CC(C)(C)NC[C@H](O)COc1nsnc1N1CCOCC1 [Timolol maleate] | 0 µg | 1.2 µg | 65 µg |
